Laboratory results: patent US11732560B1, “Nitrate treatment for injectivity improvement” (SAUDI ARABIAN OIL COMPANY, priority 2022, dated 2023)
Like-named read-outs stand apart in the source and are kept apart here.

Which “water injection (injectivity) pressure” value (nitrate reduced to 23 mg/L) does the source give for `O=[N+]([O-])O` [nitrate] here?
The value was 930 psig.

What about the injectivity pressure (nitrate reduced to 23 mg/l) of the same molecule?
Its injectivity pressure is 930 psi.

What about the “injectivity pressure” value (nitrate treatment of 45 mg/L) of the same molecule?
The value was 960 psi.

And the “water injection (injectivity) pressure” value (nitrate treatment of 45 mg/L)?
The value was 960 psig.
